# In PubChem BioAssay (EPA / NIEHS):
# Sequences of proteins named here, by UniProt entry; tags and fusion partners are left off. A change or cut given only in a name is not applied to a line headed by its entry.
# UniProt P19785, whole entry, looked up: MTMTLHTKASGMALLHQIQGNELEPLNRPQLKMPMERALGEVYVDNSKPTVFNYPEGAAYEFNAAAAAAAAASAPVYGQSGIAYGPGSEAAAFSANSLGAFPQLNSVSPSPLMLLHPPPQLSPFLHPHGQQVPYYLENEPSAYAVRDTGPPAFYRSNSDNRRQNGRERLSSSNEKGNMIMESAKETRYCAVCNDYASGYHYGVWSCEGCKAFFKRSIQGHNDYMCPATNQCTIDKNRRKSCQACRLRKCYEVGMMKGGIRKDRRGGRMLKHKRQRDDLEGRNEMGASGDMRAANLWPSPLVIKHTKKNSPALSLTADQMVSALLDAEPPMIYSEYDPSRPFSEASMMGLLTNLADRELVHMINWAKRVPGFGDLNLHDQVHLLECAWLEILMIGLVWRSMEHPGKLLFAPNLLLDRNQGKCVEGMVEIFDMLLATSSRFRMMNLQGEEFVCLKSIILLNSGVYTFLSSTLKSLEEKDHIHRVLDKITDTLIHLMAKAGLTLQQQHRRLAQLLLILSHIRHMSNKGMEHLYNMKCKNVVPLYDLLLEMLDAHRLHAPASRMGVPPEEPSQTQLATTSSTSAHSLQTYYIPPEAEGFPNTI
# UniProt P23975, whole entry, looked up: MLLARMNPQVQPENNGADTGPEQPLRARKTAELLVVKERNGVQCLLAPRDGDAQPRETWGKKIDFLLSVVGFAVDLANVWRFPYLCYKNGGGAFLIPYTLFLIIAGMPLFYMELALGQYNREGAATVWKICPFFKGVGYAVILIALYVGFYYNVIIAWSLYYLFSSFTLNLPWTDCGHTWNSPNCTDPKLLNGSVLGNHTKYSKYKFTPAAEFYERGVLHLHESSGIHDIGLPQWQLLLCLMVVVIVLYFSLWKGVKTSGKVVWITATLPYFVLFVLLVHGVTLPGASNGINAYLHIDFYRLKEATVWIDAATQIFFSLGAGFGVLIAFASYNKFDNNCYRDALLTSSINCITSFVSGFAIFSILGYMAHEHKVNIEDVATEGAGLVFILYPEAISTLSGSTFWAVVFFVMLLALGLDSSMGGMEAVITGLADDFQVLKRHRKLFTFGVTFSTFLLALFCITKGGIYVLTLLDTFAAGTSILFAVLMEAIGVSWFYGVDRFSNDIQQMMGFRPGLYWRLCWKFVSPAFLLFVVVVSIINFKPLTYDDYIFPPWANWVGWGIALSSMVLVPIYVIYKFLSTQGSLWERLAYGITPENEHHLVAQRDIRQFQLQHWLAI
# UniProt Q96RI1: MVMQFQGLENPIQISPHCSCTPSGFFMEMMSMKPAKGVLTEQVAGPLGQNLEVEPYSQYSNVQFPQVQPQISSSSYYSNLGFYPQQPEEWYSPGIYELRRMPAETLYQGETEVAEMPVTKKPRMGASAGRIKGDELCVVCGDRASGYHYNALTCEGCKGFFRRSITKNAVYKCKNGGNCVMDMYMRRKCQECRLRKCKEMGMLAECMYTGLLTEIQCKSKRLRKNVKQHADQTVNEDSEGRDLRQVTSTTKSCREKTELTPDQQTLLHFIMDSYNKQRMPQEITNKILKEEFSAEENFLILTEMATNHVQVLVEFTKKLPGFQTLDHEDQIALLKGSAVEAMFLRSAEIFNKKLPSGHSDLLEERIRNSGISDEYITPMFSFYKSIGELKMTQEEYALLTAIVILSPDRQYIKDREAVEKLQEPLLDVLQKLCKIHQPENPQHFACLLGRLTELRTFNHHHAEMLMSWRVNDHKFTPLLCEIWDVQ
# UniProt P31652, whole entry, looked up: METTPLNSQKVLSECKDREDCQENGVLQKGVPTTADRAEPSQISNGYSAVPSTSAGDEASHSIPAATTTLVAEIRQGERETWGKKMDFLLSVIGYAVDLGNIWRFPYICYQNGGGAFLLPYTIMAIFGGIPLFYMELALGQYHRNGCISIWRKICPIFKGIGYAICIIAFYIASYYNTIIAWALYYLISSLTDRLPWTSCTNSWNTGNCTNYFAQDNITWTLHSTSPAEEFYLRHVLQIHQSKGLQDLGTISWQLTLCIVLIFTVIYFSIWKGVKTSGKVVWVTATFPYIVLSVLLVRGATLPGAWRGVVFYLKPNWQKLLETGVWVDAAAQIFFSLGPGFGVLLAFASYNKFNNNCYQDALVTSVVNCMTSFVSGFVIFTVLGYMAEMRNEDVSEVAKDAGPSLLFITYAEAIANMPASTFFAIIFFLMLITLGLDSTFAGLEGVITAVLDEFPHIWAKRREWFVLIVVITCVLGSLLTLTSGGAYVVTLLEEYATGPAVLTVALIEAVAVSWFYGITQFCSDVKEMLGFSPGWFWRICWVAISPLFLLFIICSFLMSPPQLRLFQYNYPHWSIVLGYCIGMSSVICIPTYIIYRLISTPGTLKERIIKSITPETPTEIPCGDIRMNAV
# UniProt P10275: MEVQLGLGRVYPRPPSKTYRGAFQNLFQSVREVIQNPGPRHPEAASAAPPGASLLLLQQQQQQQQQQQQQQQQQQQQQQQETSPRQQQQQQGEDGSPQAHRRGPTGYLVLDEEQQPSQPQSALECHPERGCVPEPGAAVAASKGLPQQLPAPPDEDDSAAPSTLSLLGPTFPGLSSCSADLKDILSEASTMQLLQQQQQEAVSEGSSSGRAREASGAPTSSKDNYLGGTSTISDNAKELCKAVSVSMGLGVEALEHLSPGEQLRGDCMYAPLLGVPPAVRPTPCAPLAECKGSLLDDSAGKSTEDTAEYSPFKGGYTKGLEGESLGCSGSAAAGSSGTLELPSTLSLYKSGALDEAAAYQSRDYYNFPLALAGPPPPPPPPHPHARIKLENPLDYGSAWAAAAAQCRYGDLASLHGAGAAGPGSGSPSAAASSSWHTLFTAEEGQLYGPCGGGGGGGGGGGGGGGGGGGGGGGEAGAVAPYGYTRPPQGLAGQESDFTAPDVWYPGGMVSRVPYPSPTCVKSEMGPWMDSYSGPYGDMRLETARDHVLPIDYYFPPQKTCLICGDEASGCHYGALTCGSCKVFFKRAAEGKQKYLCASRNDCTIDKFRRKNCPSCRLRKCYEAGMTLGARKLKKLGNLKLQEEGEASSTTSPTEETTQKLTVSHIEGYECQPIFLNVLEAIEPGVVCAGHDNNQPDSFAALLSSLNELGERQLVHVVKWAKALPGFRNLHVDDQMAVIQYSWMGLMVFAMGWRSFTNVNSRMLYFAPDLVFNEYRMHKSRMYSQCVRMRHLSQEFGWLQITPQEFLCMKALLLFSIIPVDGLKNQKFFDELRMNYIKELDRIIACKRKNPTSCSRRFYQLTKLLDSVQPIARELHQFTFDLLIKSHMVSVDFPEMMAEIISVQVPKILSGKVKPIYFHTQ
# Inconclusive results, whose numbers are uncertain, are shown with a selection of clear calls. Potencies of inconclusive entries are doubtful fits and often do not repeat. Calls of active or inactive are those of the source. Rule for the calls: active = hit-call score of the fitted dose curve at least 0.9, where 1 is the maximum; inconclusive = response in the unintended direction; inactive = score below 0.9.
# How the values were obtained:
# [1] = target: mouse Estrogen Receptor alpha (Era), Esr1 (gene 13982) (UniProt P19785); assay: NVS_NR_mERa: NovaScreen (NVS) Nuclear Receptor Binding Assay for mouse Estrogen Receptor alpha (Era) (AID 2283378);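 note: hit means loss of bound radioligand signal relative to DMSO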
# Method in brief: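 Filter radiodetection of radioligand displacement from extracted receptor protein, measured 18 h post-dose. Single 25 uM concentration in duplicate initially, with concentration-series follow-up. Binding loss fitted relative to DMSO.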
# [2] = target: human Norepinephrine Transporter (NET), SLC6A2 (gene 6530) (UniProt P23975); assay: NVS_TR_hNET: NovaScreen (NVS) Transporter Assay for human Norepinephrine Transporter (NET) (AID 2283377);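 note: cell-free membrane protein extracted from CHO cells expressing human NET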;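 for AC50: displacement of radioligand from human NET seen as loss of scintillation signal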
# Method in brief: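 In this cell-free binding screen, chemicals at 25 uM (duplicate) compete with a radioligand for CHO-derived human NET over 1 hour, with filter-based radiodetection.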
# [3] = target: Bile acid receptor (Homo sapiens) (UniProt Q96RI1); assay: OT_FXR_FXRSRC1_0480: Odyssey Thera (OT) 8-hour HEK293T Protein-Complementation Assay for Farnesoid X receptor/SRC-1 Co-activator (AID 2283383)
# Method in brief: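 Readings were taken 8 h after dosing HEK293T cells in a split-reporter complementation format pairing FXR with SRC-1. Increased fluorescence relative to DMSO-treated wells defined activity.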
# [4] = target: rat Serotonin Transporter (SERT), Slc6a4 (gene 25553) (UniProt P31652); assay: NVS_TR_rSERT: NovaScreen (NVS) Transporter Assay for rat Serotonin Transporter (SERT) (AID 2283375)
# Method in brief: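 Radioligand binding with competitive displacement on rat forebrain membrane preparations, counted by filtration and scintillation after 1 h. Primary single-point duplicates at 25 uM; active chemicals followed up in concentration-response. DMSO served as baseline.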
# [5] = system: rat Norepinephrine Transporter (NET), gene 83511; assay: NVS_TR_rNET: NovaScreen (NVS) Transporter Assay for rat Norepinephrine Transporter (NET) (AID 2283373)
# Method in brief: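 Competitive radioligand displacement at the rat NET using forebrain membrane preparations, 1 h incubation, filter-based scintillation readout. Primary testing in duplicate at a single 25 uM concentration; confirmed actives retested across concentrations.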
# [6] = target: Agonist Androgen Response Element (ARE), AR (gene 367) (UniProt P10275); assay: OT_AR_ARELUC_AG_1440: Odyssey Thera (OT) 24-hour CHO-K1 Luciferase Assay for Agonist Androgen Response Element (ARE) (AID 2283379)
# Method in brief: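 Luminescence increase above DMSO, read after a 24 h compound treatment of CHO-K1 cells expressing an androgen response element luciferase reporter, gives the single primary endpoint; concentration-response fitting used the positive direction.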
# [7] = target: Bile acid receptor (Homo sapiens) (UniProt Q96RI1); assay: OT_FXR_FXRSRC1_1440: Odyssey Thera (OT) 24-hour HEK293T Protein-Complementation Assay for Farnesoid X receptor/SRC-1 Co-activator (AID 2283384)
# Method in brief: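 Single endpoint, analysed for increased fluorescence against DMSO controls. HEK293T cells carrying FXR and SRC-1 linked to complementary reporter halves were exposed to chemicals for 24 h before reading.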
compound,measurement,setting,value
Nc1nc(=S)c2[nH]cnc2[nH]1,AC50,[1],inconclusive: 38.8 µM
COc1ccc(S(=O)(=O)N2C(=O)[C@@](c3ccccc3OC)(N3C[C@H](O)C[C@H]3C(=O)N(C)C)c3cc(Cl)ccc32)c(OC)c1,AC50,[1],inconclusive: 46.3 µM
CCC(C)C(=O)OC (centres undefined),AC50,[2],inconclusive: 7.64 µM
CC[C@H](NC(=O)c1cc(F)ccc1NS(=O)(=O)c1cccc2cccnc12)c1ccccc1,AC50,[1],inconclusive: 36.6 µM
C/C=C\C/C=C/CCCCCCCCOC(C)=O,AC50,[1],inconclusive: 45.1 µM
Oc1ccc2ccccc2c1N=Nc1ccccc1,AC50,[2],inconclusive: 41.9 µM
same,AC50,[1],inconclusive: 39.4 µM
same,AC50,[3],active: 36.5 µM
C[C@]12C=CC(=O)C=C1CC[C@@H]1[C@@H]2C(=O)C[C@@]2(C)[C@H]1CC[C@]2(O)C(=O)CO,AC50,[1],inconclusive: 43 µM
CCCCCCCCC(C)=O,AC50,[2],inconclusive: 25 µM
NC(=Nc1ccccc1)Nc1ccccc1,outcome,[2],inactive
COC(=O)c1ccc(C(=O)OC)cc1,AC50,[2],inconclusive: 25 µM
Cc1ccc(N)cc1O,AC50,[2],inconclusive: 25 µM
CC(C)(O)c1ccc(CNC(=O)c2cccnc2Oc2ccc3nonc3c2)cc1,AC50,[1],inconclusive: 6.05 µM
S=C(NC1CCCCC1)NC1CCCCC1,outcome,[1],inactive
CCCCc1oc2ccccc2c1C(=O)c1cc(I)c(OCCN(CC)CC)c(I)c1,AC50,[4],inconclusive: 0.124 µM
O=[N+]([O-])c1ccc(O)cc1,outcome,[1],inactive
CC(C)c1cccc(O)c1,AC50,[1],inconclusive: 0.578 µM
CCC(Cc1ccccc1)(C(=O)c1ccc(N2CCOCC2)cc1)N(C)C (centres undefined),outcome,[1],inactive
c1ccc2[nH]c(-c3cscn3)nc2c1,AC50,[5],inconclusive: 0.0799 µM
same,outcome,[3],inactive
O=C(O)c1ccc2c(c1)C(=O)OC2=O,outcome,[6],inactive
same,AC50,[3],inconclusive: 50 µM
O=S(=O)(O)c1ccccc1C=Cc1ccc(-c2ccc(C=Cc3ccccc3S(=O)(=O)O)cc2)cc1,AC50,[1],inconclusive: 21.2 µM
same,AC50,[3],inconclusive: 65 µM
CCCCCCOC(=O)CC(CC(=O)OCCCCCC)(OC(=O)CCC)C(=O)OCCCCCC,AC50,[6],inconclusive: 50 µM
CCCCc1ccc2ccccc2c1S(=O)(=O)O,AC50,[6],active: 13.3 µM
same,AC50,[7],inconclusive: 2.25 µM
Cc1c2ccccc2c(C)c2c1ccc1ccccc12,AC50,[1],inconclusive: 40.2 µM
same,AC50,[6],inconclusive: 50 µM
CC(C)c1ccc2cc(C(C)C)ccc2c1,AC50,[6],inconclusive: 50 µM
Nc1ccc(S(=O)(=O)c2ccc(N)cc2)cc1,AC50,[1],inconclusive: 4.85 µM
same,outcome,[7],inactive
O=C(O)C1(C(=O)Nc2ccc(Cl)cc2Cl)CC1,outcome,[3],inactive
C(=C(c1ccccc1)c1ccccc1)c1ccccc1,AC50,[1],active: 8.44 µM
same,AC50,[3],active: 73.5 µM
c1ccc2c(c1)ccc1ncccc12,AC50,[1],inconclusive: 42.8 µM
CC1COc2ccccc2N1C(=O)C(Cl)Cl (centres undefined),AC50,[1],active: 1.88 µM
CC(C)CCCCCCOC(=O)C1CCCCC1C(=O)OCCCCCCC(C)C (centres undefined),outcome,[1],inactive
same,AC50,[7],inconclusive: 50 µM
CCC/C=C/C=O,outcome,[6],inactive
CC(C)OC(=O)C(C)(C)Oc1ccc(C(=O)c2ccc(Cl)cc2)cc1,outcome,[1],inactive
same,AC50,[6],inconclusive: 25.3 µM
O=C1C=CC(=O)N1c1ccccc1,outcome,[1],inactive
same,AC50,[3],inconclusive: 31 µM
same,AC50,[7],inconclusive: 30.4 µM
CCC(C)(C)C1CCC(=O)CC1,outcome,[1],inactive
same,outcome,[6],inactive
CCCCCCCCCCOS(=O)(=O)O,AC50,[3],inconclusive: 49.8 µM

# A second format for part of the listing above:
compound | measurement | setting | value
C(=C(c1ccccc1)c1ccccc1)c1ccccc1 | AC50 | [3] | active: 73.5 µM
c1ccc2c(c1)ccc1ncccc12 | AC50 | [1] | inconclusive: 42.8 µM
CC1COc2ccccc2N1C(=O)C(Cl)Cl (centres undefined) | AC50 | [1] | active: 1.88 µM
CC(C)CCCCCCOC(=O)C1CCCCC1C(=O)OCCCCCCC(C)C (centres undefined) | outcome | [1] | inactive
